Laboratory results taken from the supplement of paper PMC10849652.
The other results are listed elsewhere or left out.

Amino acid sequences for entries named in this document (tags omitted). A change or cut given only in a name is not applied to a line headed by its entry.
UniProt P23246: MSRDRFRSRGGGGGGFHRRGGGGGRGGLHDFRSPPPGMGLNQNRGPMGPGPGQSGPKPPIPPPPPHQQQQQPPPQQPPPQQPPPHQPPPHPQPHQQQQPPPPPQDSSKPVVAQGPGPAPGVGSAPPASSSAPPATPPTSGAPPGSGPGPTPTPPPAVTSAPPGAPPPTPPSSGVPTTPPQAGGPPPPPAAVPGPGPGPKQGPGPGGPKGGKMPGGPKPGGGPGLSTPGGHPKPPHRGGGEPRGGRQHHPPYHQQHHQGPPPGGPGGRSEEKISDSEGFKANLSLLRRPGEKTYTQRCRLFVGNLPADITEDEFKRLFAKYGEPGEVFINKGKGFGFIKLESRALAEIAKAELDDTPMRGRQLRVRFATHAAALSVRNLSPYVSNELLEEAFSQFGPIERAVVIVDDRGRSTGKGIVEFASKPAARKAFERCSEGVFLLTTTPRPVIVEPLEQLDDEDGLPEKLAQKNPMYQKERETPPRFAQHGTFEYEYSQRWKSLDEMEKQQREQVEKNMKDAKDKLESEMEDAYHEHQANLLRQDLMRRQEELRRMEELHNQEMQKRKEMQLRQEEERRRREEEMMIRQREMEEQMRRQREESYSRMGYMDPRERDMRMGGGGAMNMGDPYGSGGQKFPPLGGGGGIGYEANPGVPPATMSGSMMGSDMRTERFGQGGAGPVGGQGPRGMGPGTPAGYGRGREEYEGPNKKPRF
UniProt O75533, whole entry, looked up: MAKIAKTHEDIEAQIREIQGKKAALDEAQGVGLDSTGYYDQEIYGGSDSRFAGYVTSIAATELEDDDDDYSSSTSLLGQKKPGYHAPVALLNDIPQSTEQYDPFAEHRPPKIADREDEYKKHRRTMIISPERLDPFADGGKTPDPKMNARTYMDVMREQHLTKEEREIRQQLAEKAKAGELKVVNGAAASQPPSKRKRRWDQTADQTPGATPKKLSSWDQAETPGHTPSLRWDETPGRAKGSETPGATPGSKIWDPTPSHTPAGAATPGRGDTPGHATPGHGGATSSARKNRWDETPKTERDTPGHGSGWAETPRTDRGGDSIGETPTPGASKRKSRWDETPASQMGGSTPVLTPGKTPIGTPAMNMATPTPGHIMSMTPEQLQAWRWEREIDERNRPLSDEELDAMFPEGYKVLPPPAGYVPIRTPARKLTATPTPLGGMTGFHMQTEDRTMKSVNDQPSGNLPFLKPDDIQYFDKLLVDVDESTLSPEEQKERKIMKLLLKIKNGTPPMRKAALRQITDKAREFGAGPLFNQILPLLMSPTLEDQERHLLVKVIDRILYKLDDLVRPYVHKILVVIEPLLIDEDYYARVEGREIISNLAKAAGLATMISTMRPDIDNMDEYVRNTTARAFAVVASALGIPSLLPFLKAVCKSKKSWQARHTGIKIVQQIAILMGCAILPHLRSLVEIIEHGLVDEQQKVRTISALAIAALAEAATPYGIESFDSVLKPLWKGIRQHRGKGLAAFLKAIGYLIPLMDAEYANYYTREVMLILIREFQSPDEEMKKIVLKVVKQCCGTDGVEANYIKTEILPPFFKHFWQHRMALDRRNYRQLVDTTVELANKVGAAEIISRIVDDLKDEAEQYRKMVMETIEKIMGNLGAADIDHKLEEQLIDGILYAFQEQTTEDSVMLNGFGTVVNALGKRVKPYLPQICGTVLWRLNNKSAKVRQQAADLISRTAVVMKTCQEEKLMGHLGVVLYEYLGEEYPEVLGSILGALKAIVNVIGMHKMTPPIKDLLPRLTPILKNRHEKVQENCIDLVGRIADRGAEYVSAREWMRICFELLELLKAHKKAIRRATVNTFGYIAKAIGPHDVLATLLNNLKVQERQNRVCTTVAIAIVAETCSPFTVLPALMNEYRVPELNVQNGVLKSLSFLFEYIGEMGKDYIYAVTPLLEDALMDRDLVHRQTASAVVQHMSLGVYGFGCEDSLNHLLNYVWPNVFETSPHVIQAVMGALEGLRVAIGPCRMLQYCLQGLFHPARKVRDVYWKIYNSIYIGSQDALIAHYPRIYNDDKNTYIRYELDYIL
UniProt P60468, whole entry, looked up: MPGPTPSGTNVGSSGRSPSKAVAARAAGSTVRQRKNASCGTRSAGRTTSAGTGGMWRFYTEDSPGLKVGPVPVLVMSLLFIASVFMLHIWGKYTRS
UniProt O43236: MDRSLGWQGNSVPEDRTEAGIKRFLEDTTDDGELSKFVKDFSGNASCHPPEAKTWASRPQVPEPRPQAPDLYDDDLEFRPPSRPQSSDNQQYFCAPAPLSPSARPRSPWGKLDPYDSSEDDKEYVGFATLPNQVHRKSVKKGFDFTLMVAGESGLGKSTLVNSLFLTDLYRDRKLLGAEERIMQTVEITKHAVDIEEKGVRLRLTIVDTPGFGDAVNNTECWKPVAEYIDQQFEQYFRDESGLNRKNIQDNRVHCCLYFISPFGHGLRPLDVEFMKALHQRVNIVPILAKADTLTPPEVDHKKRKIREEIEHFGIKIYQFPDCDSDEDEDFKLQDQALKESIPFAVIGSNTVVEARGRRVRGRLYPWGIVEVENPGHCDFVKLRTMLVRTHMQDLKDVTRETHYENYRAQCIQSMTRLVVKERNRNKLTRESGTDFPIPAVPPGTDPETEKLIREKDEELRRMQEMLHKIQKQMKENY
UniProt P61619, whole entry, looked up: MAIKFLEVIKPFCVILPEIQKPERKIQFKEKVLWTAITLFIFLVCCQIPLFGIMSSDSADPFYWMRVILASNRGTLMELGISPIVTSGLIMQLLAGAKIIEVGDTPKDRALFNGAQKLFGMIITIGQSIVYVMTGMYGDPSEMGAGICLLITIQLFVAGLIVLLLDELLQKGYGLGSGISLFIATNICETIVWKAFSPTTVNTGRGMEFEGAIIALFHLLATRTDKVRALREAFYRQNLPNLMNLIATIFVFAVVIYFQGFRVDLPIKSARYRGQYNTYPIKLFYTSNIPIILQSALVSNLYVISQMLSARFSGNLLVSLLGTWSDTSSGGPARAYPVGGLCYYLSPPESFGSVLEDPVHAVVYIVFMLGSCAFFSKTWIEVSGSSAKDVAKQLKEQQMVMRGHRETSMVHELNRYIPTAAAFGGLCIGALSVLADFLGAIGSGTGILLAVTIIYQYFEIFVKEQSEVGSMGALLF
UniProt Q15427: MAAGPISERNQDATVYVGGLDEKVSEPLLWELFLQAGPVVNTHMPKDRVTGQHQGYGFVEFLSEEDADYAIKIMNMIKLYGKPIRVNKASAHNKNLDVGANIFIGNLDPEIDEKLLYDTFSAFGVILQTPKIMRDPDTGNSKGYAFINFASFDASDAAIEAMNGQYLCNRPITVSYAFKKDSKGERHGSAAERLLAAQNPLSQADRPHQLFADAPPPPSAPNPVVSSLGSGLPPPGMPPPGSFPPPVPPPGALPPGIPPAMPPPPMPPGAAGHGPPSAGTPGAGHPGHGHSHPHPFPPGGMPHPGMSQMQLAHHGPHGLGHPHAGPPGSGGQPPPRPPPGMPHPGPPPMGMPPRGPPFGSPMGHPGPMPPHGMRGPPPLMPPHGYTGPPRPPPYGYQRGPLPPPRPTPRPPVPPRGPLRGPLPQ
UniProt O75368: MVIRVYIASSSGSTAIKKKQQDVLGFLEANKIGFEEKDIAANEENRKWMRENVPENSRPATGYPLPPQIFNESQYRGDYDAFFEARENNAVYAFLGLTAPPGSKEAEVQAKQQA
UniProt Q15019: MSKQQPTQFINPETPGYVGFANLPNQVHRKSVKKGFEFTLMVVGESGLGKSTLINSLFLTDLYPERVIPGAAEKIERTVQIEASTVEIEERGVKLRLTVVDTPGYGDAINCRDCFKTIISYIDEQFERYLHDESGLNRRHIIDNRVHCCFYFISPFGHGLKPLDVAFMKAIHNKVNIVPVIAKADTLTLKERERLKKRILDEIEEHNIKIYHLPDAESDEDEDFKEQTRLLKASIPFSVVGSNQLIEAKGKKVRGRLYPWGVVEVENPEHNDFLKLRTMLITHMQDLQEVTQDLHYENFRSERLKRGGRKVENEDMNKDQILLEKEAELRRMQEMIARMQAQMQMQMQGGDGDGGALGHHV
UniProt Q96ST3: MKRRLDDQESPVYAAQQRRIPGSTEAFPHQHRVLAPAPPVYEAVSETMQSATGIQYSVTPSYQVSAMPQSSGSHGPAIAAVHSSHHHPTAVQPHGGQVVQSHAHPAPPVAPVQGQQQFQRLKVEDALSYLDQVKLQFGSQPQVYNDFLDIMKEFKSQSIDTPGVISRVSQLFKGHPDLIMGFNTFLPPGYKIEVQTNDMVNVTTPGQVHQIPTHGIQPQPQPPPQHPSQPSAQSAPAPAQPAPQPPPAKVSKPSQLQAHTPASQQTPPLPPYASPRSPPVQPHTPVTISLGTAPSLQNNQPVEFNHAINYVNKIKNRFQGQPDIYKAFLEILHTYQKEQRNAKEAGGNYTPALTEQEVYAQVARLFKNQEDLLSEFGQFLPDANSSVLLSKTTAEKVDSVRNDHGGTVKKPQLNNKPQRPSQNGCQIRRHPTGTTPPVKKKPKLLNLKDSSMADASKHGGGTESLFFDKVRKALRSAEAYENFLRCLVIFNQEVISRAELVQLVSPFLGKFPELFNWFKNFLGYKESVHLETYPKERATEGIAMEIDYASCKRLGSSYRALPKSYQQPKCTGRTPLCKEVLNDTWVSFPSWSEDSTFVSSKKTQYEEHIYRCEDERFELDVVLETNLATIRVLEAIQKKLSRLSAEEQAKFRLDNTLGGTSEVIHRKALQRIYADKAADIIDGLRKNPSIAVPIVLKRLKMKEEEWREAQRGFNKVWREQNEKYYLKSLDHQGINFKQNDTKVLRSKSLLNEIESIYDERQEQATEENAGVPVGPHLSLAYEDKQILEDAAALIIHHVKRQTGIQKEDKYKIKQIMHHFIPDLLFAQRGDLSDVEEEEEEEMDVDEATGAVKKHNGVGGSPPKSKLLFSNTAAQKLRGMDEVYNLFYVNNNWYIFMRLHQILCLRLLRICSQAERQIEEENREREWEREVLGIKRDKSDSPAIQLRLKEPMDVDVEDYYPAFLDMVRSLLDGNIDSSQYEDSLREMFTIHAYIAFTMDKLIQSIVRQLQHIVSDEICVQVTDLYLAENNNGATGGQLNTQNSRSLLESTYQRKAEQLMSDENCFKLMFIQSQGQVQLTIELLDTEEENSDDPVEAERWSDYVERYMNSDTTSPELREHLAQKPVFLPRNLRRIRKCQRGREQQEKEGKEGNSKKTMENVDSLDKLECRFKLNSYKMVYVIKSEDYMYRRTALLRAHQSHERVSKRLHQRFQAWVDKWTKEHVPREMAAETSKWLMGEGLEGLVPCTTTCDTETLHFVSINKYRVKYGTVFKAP
UniProt P50453: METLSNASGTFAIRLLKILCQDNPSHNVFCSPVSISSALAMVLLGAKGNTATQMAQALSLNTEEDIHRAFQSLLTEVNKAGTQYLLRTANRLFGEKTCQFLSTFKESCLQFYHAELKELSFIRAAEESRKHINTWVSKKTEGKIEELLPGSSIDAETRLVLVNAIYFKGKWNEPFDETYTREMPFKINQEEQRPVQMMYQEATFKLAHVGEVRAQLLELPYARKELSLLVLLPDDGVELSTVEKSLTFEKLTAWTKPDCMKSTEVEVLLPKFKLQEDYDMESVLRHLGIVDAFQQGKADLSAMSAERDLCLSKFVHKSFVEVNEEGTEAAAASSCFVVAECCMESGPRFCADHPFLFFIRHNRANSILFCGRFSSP
UniProt Q96ES7: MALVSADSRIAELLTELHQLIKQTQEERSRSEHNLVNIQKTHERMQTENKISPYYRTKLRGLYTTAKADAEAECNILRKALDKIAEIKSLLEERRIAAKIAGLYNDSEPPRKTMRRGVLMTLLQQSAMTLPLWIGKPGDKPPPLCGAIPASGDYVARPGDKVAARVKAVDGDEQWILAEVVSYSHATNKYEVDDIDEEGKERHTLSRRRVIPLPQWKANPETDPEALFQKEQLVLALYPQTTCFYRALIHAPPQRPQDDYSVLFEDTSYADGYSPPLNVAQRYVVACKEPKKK
UniProt Q14141: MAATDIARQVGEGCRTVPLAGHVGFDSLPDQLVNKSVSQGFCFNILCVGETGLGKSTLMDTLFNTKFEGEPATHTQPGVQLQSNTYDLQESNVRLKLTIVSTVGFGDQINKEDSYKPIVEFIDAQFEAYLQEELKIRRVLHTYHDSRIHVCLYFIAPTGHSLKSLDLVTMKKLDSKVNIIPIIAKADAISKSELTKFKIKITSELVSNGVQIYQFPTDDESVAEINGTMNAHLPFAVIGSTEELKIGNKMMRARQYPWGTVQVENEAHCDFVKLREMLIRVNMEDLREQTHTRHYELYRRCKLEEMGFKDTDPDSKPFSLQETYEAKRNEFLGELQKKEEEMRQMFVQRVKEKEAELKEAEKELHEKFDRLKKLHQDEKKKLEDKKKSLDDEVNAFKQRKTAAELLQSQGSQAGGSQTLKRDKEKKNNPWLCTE

How the values were obtained:
Assay in all cases: log2 fold change, soluble protein after heating vs DMSO (PISA); higher = thermal stabilisation; K562 cells, 10 uM, 30 min; active = over 0.2 and 3.5 SD of the protein, either way, in both replicates (recomputed)
[1] = compound: CC1=C(C=C(C=C1)NC(=O)C2=CC(=CC=C2)C(C)(C)C#N)NC3=CC4=C(C=C3)N=CN(C4=O)C
Summary of the method: (§1)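 Values are thermal stability changes relative to control samples and are taken from duplicates. They are stated as log2 fold changes. Before quantification by TMTpro 16plex LC-MS/MS with equalised channel sums, K562 cells at 2×10^6 cells/mL were treated with 10 μM compound for 30 min, heated in aliquots for 3 min across 48°C-58°C, pooled, extracted in PBS with 0.5% NP-40 at 4°C, and centrifuged at 21,000xg for 90 min to give the soluble supernatant.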

[2] = compound: CC1=C(C=C(C=C1)NC(=O)C2=CC(=CC=C2)N(C)C)NC(=O)C3=CC=C(C=C3)O
Summary of the method: as §1

[3] = compound: CC1=CC=C(C=C1)SC2=C3C=C(SC3=CN=C2)C(=O)N
Summary of the method: as §1

[4] = compound: CC1=NC(=CC=C1)C2=C(N=C(N2)C(C)(C)C)C3=CC4=NC=CN=C4C=C3
Summary of the method: as §1

Nexturastat A = compound: CCCCN(Cc1ccc(C(=O)NO)cc1)C(=O)Nc1ccccc1 [Nexturastat A]
Summary of the method: as §1

vemurafenib = compound: CCCS(=O)(=O)Nc1ccc(F)c(C(=O)c2c[nH]c3ncc(-c4ccc(Cl)cc4)cc23)c1F [vemurafenib]
Summary of the method: as §1

[5] = compound: CCCS(=O)(=O)Nc1ccc(F)c(C(=O)c2c[nH]c3ncc(Cl)cc23)c1F
Summary of the method: as §1

[6] = compound: CCCc1cc(C)[nH]c(=O)c1CNC(=O)c1cc(-c2ccnc(N3CCN(C)CC3)c2)cc2c1cnn2C(C)C
Summary of the method: as §1

givinostat = compound: CCN(CC)Cc1ccc2cc(COC(=O)Nc3ccc(C(=O)NO)cc3)ccc2c1 [givinostat]
Summary of the method: as §1

barasertib = compound: CCN(CCCOc1ccc2c(Nc3cc(CC(=O)Nc4cccc(F)c4)[nH]n3)ncnc2c1)CCOP(=O)(O)O [barasertib]
Summary of the method: as §1

[7] = compound: CC[C@@H]1C(=O)N(C)c2cnc(Nc3ccc(C(=O)NC4CCN(C)CC4)cc3OC)nc2N1C1CCCC1
Summary of the method: as §1

volasertib = compound: CC[C@@H]1C(=O)N(C)c2cnc(Nc3ccc(C(=O)N[C@H]4CC[C@H](N5CCN(CC6CC6)CC5)CC4)cc3OC)nc2N1C(C)C [volasertib]
Summary of the method: as §1

[8] = compound: CC[C@H](C)N1C=C(C2=C(C=C(C=C21)C3=CN=C(C=C3)N4CCNCC4)C(=O)NCC5=C(C=C(NC5=O)C)C)C
Summary of the method: as §1

epoxomicin = compound: CC[C@H](C)[C@@H](C(=O)N[C@@H]([C@@H](C)O)C(=O)N[C@@H](CC(C)C)C(=O)[C@]1(CO1)C)NC(=O)[C@H]([C@@H](C)CC)N(C)C(=O)C [epoxomicin]
Summary of the method: as §1

[9] = compound: CCn1c(C(=O)N(C2CC2)C2CC2)cc2c3c(ncn3C)c(Nc3cc(C)n(C)n3)nc21
Summary of the method: as §1

[10] = compound: CCn1cc(-c2ccnc3[nH]c(-c4cccc(CN(C)C)c4)cc23)c(-c2ccc(NC(=O)N(C)C)cc2)n1
Summary of the method: as §1

[11] = compound: CN(C)CC(=O)Nc1ccc2[nH]c(=O)c3ccccc3c2c1
Summary of the method: as §1

rosiglitazone = compound: CN(CCOC1=CC=C(C=C1)C[C@H]2C(=O)NC(=O)S2)C3=CC=CC=N3 (racemic) [rosiglitazone]
Summary of the method: as §1

[12] = compound: CN1C2=C(C3=C1C(=O)N(N=C3)CC4=CC(=CC=C4)N)SC(=C2)S(=O)C
Summary of the method: as §1

[13] = compound: CN1CCC(CNc2ccc3ncc(-c4cccc(OC(F)(F)F)c4)n3n2)CC1
Summary of the method: as §1

Measured: log2 fold change

SFPQ (UniProt P23246)
inactive: [1] -0.017 | [2] -0.039 | [3] -0.053 | [4] -0.024 | Nexturastat A 0.151 | vemurafenib 0.044 | [5] 0.022 | [6] 0.043 | givinostat 0.061 | barasertib -0.016 | [7] 0.046 | volasertib -0.09 | [8] 0.028 | epoxomicin -0.118 | [9] -0.031 | [10] 0.094 | [11] -0.03 | rosiglitazone -0.051 | [12] 0.128 | [13] 0.068

SIPA1 (UniProt Q96FS4)
inactive: [1] 0 | [2] 0.053 | [3] 0.003 | [4] 0.009 | Nexturastat A 0.082 | vemurafenib -0.036 | [5] -0.016 | [6] -0.002 | givinostat -0.038 | barasertib -0.008 | [7] -0.014 | volasertib -0.081 | [8] -0.078 | epoxomicin -0.018 | [9] -0.125 | [10] -0.086 | [11] 0.045 | rosiglitazone 0.017 | [12] -0.002 | [13] -0.02

SLAIN2 (UniProt Q9P270)
inactive: [1] -0.079 | [2] 0.037 | [3] -0.009 | [4] 0.052 | Nexturastat A 0.04 | vemurafenib -0.094 | [5] -0.036 | [6] -0.013 | givinostat 0.031 | barasertib -0.025 | [7] 0.067 | volasertib 0.139 | [8] -0.046 | epoxomicin -0.014 | [9] -0.023 | [10] 0.046 | [11] -0.027 | rosiglitazone -0.015 | [12] 0.086 | [13] 0.115

SF3B1 (UniProt O75533)
inactive: [1] 0.045 | [2] -0.049 | [3] 0.025 | [4] 0.007 | Nexturastat A 0.09 | vemurafenib -0.002 | [5] 0.079 | [6] -0.001 | givinostat 0.023 | barasertib -0.007 | [7] 0.004 | volasertib -0.179 | [8] 0.07 | epoxomicin -0.032 | [9] -0.078 | [10] -0.011 | [11] 0.039 | rosiglitazone 0.007 | [12] 0.061 | [13] 0.01

SEC61B (UniProt P60468)
inactive: [1] 0.003 | [2] 0.027 | [3] -0.025 | [4] -0.003 | Nexturastat A -0.085 | vemurafenib 0.027 | [5] -0.073 | [6] -0.015 | givinostat -0.017 | barasertib 0.009 | [7] 0.044 | volasertib 0.14 | [8] -0.067 | epoxomicin 0.019 | [9] 0.05 | [10] 0.036 | [11] -0.028 | rosiglitazone -0.033 | [12] 0.006 | [13] 0.026

SERPINB1 (UniProt P30740)
inactive: [1] -0.005 | [2] 0.007 | [3] -0.001 | [4] 0.035 | Nexturastat A -0.064 | vemurafenib 0 | [5] 0.017 | [6] -0.028 | givinostat 0.006 | barasertib 0.005 | [7] -0.006 | volasertib 0.01 | [8] 0.038 | epoxomicin 0.041 | [9] 0.047 | [10] -0.065 | [11] -0.004 | rosiglitazone 0.032 | [12] -0.074 | [13] 0.006

SEPTIN4 isoform 4 (UniProt O43236)
inactive: [1] 0.405 | [2] -0.029 | [3] 0.028 | [4] 0.612 | Nexturastat A -0.284 | vemurafenib 0.146 | [5] 0.091 | [6] 0.043 | givinostat -0.039 | barasertib -0.038 | [7] 0.143 | volasertib -0.022 | [8] 0.023 | epoxomicin 0.052 | [9] 0.042 | [10] -0.05 | [11] 0.112 | rosiglitazone -0.003 | [12] -0.051 | [13] -0.007

SEC61A1 (UniProt P61619)
inactive: [1] -0.003 | [2] 0.015 | [3] 0.053 | [4] -0.01 | Nexturastat A 0.041 | vemurafenib -0.04 | [5] 0.011 | [6] -0.12 | givinostat 0.014 | barasertib -0.051 | [7] 0.046 | volasertib 0 | [8] -0.074 | epoxomicin -0.134 | [9] -0.021 | [10] 0.029 | [11] 0.003 | rosiglitazone 0.022 | [12] -0.079 | [13] 0.071

SEMA4C (UniProt Q9C0C4)
inactive: [1] -0.01 | [2] -0.163 | [3] 0.031 | [4] -0.014 | Nexturastat A 0.019 | vemurafenib 0.008 | [5] -0.049 | [6] -0.037 | givinostat 0.021 | barasertib 0.01 | [7] -0.039 | volasertib -0.095 | [8] -0.019 | epoxomicin 0.018 | [9] -0.012 | [10] -0.018 | [11] -0.021 | rosiglitazone 0.015 | [12] -0.06 | [13] 0.022

SF3B4 (UniProt Q15427)
inactive: [1] 0.004 | [2] 0.055 | [3] -0.007 | [4] -0.018 | Nexturastat A 0.05 | vemurafenib 0.027 | [5] -0.085 | [6] 0.053 | givinostat 0.018 | barasertib -0.048 | [7] 0.044 | volasertib -0.025 | [8] 0 | epoxomicin 0 | [9] -0.069 | [10] 0.154 | [11] -0.068 | rosiglitazone -0.046 | [12] 0.162 | [13] 0.158

SH3BGRL (UniProt O75368)
inactive: [1] 0.104 | [2] -0.03 | [3] 0.055 | [4] 0.002 | Nexturastat A -0.007 | vemurafenib 0.039 | [5] 0.07 | [6] 0.012 | givinostat -0.026 | barasertib 0.03 | [7] -0.002 | volasertib 0.048 | [8] 0.166 | epoxomicin 0.006 | [9] 0.025 | [10] -0.004 | [11] 0 | rosiglitazone -0.014 | [12] -0.077 | [13] -0.127

SEPTIN2 isoform 2 (UniProt Q15019)
inactive: [1] -0.018 | [2] 0 | [3] -0.003 | [4] 0.012 | Nexturastat A -0.026 | vemurafenib -0.031 | [5] -0.031 | [6] -0.032 | givinostat -0.006 | barasertib -0.012 | [7] 0.042 | volasertib 0.055 | [8] -0.034 | epoxomicin 0.006 | [9] -0.012 | [10] -0.015 | [11] -0.008 | rosiglitazone 0.029 | [12] -0.026 | [13] -0.009

SIN3A (UniProt Q96ST3)
inactive: [1] -0.018 | [2] -0.111 | [3] -0.069 | [4] -0.006 | Nexturastat A 0.07 | vemurafenib -0.057 | [5] 0.114 | [6] 0.004 | givinostat -0.081 | barasertib 0.12 | [7] -0.057 | volasertib -0.322 | [8] 0.127 | epoxomicin 0.033 | [9] 0.013 | [10] 0.165 | [11] 0.11 | rosiglitazone 0.047 | [12] 0.001 | [13] -0.252

SERPINB9 (UniProt P50453)
inactive: [1] -0.02 | [2] 0.019 | [3] 0.027 | [4] 0.024 | Nexturastat A -0.023 | vemurafenib -0.007 | [5] 0.054 | [6] -0.01 | givinostat -0.08 | barasertib 0.015 | [7] -0.01 | volasertib 0.01 | [8] -0.004 | epoxomicin 0.041 | [9] 0.017 | [10] -0.039 | [11] -0.003 | rosiglitazone -0.015 | [12] -0.059 | [13] -0.002

SGF29 (UniProt Q96ES7)
inactive: [1] -0.009 | [2] -0.003 | [3] 0.003 | [4] 0.011 | Nexturastat A 0.014 | vemurafenib 0.108 | [5] 0.073 | [6] -0.032 | givinostat 0.096 | barasertib 0.037 | [7] 0.025 | volasertib 0.008 | [8] 0.022 | epoxomicin 0.018 | [9] -0.059 | [10] -0.12 | [11] 0.059 | rosiglitazone 0.006 | [12] -0.051 | [13] 0.049

SEPTIN6 (UniProt Q14141)
inactive: [1] 0.037 | [2] 0.024 | [3] -0.008 | [4] 0.021 | Nexturastat A -0.052 | vemurafenib -0.017 | [5] -0.01 | [6] 0.28 | givinostat -0.074 | barasertib -0.034 | [7] 0.001 | volasertib 0.072 | [8] -0.02 | epoxomicin -0.007 | [9] 0.083 | [10] -0.017 | [11] -0.032 | rosiglitazone 0.023 | [12] -0.105 | [13] -0.057

Reprinted from the results shown (2 entries):
SEMA4C (UniProt Q9C0C4)
inactive: [1] -0.01 | [2] -0.163 | [3] 0.031 | [4] -0.014 | Nexturastat A 0.019 | vemurafenib 0.008 | [5] -0.049 | [6] -0.037 | givinostat 0.021 | barasertib 0.01 | [7] -0.039 | volasertib -0.095 | [8] -0.019 | epoxomicin 0.018 | [9] -0.012 | [10] -0.018 | [11] -0.021 | rosiglitazone 0.015 | [12] -0.06 | [13] 0.022

SF3B4 (UniProt Q15427)
inactive: [1] 0.004 | [2] 0.055 | [3] -0.007 | [4] -0.018 | Nexturastat A 0.05 | vemurafenib 0.027 | [5] -0.085 | [6] 0.053 | givinostat 0.018 | barasertib -0.048 | [7] 0.044 | volasertib -0.025 | [8] 0 | epoxomicin 0 | [9] -0.069 | [10] 0.154 | [11] -0.068 | rosiglitazone -0.046 | [12] 0.162 | [13] 0.158
